Reference: paper PMC9321663, “The DevTox Germ Layer Reporter Platform: An Assay Adaptation of the Human Pluripotent Stem Cell Test” (Toxics, 2022)
Like-named read-outs stand apart in the source and are kept apart here.

Experiments:
[1] = test system: SOX17 (endoderm marker) in RUES2-GLR cells; assay: DevTox GLR-Endo assay: decrease in percent SOX17-positive cells (AEID 3094, Sox17_dn)
Description: (§1) The total test chemical incubation period was 48 h.
(§2) Assay plate controls included non-differentiated pluripotent cells maintained in complete Essential 8 Flex medium (baseline control), endoderm differentiated cells (differentiation control), endoderm differentiated cells treated with DMSO (0.2%) (solvent control), and TGF-ß receptor inhibitor SB431542 (1 µM)-treated cells (developmental toxicant-positive control) (Figure S3). All experiments were completed with a minimum of four biological replicates (n = 4).
(§3) (Supplementary Materials).

RUES2-GLR cells = assay: DevTox GLR-Endo assay: decrease in total cell count, cytotoxicity (AEID 3098, CellCount_dn); conditions: Table S2, cell count relative to DMSO
Description: as §1, §2, §3

H9 embryonic stem cells = conditions: cited from earlier work
[2] = test system: SOX17 in H9 human ESC line; conditions: SOX17 half-maximal inhibition concentration; read-out: hPST IC50; cited from earlier work

C[C@@H]1C[C@H]2[C@@H]3CCC4=CC(=O)C=C[C@]4(C)[C@@]3(F)[C@@H](O)C[C@]2(C)[C@@]1(O)C(=O)CO [Dexamethasone]
DevTox % Max Inhibition ([1]; Table S2, percent SOX17-positive cells relative to DMSO): 21.8449%
maximum observed effect level class (% max inhibition) ([1]; stratification of training set chemicals): moderate (moderate (20–80% max inhibition))
MAX_MED ([1]; tcpl plot AEID3094, maximum median response): 21.8 Percent Activity
Cell Count % Max Inhibition (RUES2-GLR cells): 23.7311%
quickPredict CV (H9 embryonic stem cells; cell viability): 21.8 µM
quickPredict CV (H9 embryonic stem cells; concentration at cell viability cutoff): 21.8 µM

CN1CCN2c3ccccc3Cc3ccccc3C2C1 (centres unmarked) [Mianserin]
SOX17 ACC relative to cytotoxic concentration (in words) [1]: below cytotoxic concentrations
IC50 [2]: 3.4 µM
